Assay results from article PMC6791687.
These are yes or no findings as the source states them, for the method shown. Some entries that bind do so weakly or less than the wild type. Tags and fused reporters may be left off the sequences shown.

Sequences of proteins named here, by UniProt entry; tags and fusion partners are left off.
UniProt Q8W234: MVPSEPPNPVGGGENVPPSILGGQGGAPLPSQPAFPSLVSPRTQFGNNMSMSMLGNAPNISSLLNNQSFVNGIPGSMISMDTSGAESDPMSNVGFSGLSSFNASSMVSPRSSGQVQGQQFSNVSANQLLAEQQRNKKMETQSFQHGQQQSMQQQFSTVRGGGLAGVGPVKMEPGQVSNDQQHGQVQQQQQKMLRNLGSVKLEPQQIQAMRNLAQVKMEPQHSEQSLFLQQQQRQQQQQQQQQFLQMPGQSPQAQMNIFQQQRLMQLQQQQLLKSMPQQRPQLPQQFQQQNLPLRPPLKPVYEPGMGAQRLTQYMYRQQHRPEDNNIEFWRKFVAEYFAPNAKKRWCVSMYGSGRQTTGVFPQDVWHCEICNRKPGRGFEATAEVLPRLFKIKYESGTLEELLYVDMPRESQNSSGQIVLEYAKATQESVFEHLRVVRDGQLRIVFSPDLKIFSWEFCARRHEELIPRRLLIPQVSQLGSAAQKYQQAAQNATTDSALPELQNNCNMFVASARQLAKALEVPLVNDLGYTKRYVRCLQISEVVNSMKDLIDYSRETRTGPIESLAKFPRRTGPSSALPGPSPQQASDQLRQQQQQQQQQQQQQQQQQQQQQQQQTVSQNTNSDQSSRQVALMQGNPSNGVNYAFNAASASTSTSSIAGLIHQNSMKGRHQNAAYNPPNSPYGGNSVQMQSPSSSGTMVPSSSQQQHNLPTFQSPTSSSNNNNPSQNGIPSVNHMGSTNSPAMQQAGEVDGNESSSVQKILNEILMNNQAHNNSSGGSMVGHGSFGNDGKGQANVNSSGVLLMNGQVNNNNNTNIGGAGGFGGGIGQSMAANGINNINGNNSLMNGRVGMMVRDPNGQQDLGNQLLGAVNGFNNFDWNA

Target: T1, BD-FAMA (Arabidopsis thaliana) (UniProt Q56YJ8)
T1 sequence: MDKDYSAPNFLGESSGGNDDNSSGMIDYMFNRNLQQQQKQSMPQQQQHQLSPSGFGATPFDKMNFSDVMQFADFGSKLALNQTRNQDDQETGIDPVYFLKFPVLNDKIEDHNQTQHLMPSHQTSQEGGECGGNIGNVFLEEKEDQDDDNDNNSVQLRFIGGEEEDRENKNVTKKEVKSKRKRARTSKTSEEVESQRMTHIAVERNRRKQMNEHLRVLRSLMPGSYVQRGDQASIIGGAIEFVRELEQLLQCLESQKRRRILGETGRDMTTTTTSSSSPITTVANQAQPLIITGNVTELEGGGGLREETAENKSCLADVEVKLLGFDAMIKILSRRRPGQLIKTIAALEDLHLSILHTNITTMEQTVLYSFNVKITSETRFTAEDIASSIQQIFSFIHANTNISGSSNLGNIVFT
Assay: two-hybrid; yeast AH109, BD-FAMA (pXDGATcy86) with AD fusions (pGADT7-GW); growth on -LTHA with 3-AT against autoactivation of BD-FAMA, and X-alpha-Gal blue/white test

In the case of AD-SEU (from UniProt Q8W234 1-877), the binding is reported as “binds”.
